The source of these data is the supplement of paper PMC12067093, “Discovery and optimisation of a covalent ligand for TRIM25 and its application to targeted protein ubiquitination” (Chemical Science, 2025).

Sequences of proteins named here, by UniProt entry; tags and fusion partners are left off. A change or cut given only in a name is not applied to a line headed by its entry.
UniProt P48059, whole entry, looked up: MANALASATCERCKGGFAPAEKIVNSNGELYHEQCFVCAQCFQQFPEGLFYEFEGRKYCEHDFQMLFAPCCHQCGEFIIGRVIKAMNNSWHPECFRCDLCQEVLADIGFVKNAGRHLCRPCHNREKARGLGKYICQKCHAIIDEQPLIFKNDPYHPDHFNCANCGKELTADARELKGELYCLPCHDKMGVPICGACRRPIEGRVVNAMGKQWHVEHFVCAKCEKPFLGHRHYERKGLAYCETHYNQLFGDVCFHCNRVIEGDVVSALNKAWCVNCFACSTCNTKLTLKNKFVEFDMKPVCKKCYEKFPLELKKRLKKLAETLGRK
UniProt Q7L5N7: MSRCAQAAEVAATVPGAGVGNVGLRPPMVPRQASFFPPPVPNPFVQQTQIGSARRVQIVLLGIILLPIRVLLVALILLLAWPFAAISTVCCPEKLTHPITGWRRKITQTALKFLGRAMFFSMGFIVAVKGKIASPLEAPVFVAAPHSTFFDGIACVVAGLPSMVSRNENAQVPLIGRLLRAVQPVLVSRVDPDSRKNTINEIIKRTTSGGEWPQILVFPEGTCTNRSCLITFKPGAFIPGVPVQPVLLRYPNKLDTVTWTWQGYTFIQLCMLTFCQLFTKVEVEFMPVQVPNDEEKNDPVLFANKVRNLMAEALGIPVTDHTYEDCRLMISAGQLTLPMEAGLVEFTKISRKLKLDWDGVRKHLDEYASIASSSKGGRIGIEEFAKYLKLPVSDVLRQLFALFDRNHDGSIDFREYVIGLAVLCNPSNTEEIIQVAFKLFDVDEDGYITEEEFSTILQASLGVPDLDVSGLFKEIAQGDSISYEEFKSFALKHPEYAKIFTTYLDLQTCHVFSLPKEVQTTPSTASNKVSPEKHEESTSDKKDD
UniProt O00453: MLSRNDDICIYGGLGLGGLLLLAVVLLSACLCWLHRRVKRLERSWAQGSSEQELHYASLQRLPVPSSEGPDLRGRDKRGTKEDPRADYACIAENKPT
UniProt O94822: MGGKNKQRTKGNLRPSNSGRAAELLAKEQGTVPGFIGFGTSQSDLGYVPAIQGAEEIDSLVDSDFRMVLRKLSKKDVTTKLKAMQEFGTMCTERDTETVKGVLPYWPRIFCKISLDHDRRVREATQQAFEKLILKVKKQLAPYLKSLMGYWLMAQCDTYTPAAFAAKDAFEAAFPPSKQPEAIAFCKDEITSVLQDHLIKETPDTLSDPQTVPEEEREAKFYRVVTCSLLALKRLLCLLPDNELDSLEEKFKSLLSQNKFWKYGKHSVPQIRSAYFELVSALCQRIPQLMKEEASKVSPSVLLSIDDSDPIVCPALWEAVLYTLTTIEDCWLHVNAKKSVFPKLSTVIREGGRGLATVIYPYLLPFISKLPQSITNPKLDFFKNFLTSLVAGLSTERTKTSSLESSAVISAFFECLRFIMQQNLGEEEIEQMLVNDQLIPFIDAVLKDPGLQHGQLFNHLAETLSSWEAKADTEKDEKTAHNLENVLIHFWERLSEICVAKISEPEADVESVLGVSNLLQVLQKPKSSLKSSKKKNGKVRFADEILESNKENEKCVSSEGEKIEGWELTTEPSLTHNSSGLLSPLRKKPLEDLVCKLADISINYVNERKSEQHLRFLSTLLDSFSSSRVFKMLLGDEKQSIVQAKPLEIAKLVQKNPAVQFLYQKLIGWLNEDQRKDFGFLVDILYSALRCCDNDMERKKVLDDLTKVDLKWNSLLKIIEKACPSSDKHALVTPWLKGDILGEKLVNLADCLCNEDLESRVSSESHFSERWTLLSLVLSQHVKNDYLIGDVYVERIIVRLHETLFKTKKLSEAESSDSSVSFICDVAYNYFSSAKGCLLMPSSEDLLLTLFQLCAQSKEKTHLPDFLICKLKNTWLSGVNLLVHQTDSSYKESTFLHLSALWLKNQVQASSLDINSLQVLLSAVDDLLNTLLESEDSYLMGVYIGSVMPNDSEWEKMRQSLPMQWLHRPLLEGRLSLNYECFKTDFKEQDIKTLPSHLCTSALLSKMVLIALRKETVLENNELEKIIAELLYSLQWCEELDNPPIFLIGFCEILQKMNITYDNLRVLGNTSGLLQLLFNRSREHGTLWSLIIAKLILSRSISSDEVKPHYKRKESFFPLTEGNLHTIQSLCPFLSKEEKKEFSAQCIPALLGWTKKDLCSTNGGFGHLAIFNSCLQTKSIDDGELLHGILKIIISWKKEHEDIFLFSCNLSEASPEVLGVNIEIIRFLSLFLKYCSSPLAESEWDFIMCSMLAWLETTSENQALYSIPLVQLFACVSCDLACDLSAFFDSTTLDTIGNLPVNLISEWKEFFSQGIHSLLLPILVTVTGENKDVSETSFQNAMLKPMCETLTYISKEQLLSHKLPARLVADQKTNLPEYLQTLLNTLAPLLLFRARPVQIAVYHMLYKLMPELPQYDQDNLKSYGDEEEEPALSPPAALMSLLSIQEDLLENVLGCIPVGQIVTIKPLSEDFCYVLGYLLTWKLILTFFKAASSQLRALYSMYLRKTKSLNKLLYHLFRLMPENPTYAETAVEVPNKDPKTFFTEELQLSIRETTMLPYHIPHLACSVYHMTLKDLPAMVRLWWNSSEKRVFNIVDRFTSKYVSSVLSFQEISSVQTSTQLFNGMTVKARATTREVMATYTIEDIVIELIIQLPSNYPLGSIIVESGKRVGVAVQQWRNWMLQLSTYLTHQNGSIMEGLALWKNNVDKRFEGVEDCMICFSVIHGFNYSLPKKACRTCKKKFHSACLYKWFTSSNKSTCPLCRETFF
UniProt P09960: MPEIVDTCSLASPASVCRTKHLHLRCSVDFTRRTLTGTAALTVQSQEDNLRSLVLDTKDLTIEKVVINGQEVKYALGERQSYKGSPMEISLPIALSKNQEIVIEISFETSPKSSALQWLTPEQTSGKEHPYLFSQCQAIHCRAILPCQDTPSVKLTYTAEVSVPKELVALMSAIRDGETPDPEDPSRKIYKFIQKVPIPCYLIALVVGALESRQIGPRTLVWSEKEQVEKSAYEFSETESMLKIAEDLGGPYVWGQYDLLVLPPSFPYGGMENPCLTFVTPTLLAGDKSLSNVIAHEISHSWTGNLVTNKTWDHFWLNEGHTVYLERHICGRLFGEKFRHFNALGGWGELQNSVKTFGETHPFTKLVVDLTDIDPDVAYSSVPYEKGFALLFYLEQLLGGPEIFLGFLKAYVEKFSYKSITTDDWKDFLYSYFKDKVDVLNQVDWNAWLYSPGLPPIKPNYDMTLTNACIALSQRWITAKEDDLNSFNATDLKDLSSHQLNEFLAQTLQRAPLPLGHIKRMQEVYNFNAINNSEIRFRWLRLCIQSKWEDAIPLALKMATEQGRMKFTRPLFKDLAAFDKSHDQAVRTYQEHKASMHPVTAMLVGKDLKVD
UniProt Q9Y2L9: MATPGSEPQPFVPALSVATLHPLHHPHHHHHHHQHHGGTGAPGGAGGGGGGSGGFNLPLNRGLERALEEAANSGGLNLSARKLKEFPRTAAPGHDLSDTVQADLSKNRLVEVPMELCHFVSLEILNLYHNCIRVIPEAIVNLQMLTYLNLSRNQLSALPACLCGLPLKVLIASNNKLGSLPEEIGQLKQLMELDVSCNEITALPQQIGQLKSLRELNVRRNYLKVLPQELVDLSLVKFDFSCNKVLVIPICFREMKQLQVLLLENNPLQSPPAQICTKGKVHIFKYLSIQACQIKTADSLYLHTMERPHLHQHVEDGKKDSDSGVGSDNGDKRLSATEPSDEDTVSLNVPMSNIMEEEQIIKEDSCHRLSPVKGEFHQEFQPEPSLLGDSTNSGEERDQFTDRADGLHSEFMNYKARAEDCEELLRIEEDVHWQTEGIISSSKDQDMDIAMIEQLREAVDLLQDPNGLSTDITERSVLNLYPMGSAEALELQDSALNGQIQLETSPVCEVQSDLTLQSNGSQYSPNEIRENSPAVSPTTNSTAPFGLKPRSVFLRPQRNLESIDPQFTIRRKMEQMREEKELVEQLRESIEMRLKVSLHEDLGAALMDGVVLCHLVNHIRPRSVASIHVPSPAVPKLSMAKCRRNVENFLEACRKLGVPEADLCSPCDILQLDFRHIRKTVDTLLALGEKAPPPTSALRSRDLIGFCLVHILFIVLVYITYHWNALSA
UniProt O75427: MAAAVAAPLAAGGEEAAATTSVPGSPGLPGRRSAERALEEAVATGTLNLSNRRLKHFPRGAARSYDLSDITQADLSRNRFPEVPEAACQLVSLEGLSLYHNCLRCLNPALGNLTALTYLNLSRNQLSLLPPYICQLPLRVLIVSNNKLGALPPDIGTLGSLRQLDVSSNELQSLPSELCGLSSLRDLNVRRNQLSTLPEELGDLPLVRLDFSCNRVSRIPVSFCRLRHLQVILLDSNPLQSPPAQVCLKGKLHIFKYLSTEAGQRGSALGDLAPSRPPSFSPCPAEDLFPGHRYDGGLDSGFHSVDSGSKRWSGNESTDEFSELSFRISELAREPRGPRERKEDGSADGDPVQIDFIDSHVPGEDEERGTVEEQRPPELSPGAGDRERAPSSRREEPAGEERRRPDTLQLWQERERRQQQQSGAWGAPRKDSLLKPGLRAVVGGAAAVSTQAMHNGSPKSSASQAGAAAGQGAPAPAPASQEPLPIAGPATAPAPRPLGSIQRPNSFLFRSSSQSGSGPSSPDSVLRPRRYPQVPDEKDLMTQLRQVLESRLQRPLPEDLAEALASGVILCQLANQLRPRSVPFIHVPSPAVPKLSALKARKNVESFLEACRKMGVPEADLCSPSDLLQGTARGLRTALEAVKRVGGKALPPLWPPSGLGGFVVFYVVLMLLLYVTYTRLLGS
UniProt Q96PV6, whole entry, looked up: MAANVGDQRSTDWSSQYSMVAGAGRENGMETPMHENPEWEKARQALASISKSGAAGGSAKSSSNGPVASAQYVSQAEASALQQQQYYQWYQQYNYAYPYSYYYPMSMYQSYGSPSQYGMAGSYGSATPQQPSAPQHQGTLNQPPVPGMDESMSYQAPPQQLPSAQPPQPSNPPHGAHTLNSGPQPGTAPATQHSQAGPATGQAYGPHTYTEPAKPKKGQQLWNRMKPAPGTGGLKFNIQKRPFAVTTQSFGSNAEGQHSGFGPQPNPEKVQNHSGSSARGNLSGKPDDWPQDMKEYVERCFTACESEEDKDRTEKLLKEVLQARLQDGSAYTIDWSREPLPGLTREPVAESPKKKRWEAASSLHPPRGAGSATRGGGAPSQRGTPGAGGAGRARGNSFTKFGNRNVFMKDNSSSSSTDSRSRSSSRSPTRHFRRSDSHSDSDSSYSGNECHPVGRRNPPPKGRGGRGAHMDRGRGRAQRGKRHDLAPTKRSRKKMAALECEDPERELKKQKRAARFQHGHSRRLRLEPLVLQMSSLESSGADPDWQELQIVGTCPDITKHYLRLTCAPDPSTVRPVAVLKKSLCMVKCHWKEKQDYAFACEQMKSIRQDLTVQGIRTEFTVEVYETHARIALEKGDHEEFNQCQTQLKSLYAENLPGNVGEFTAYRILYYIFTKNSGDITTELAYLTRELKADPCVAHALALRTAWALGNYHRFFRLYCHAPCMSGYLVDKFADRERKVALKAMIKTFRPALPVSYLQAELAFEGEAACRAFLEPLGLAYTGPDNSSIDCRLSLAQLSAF
UniProt P48449: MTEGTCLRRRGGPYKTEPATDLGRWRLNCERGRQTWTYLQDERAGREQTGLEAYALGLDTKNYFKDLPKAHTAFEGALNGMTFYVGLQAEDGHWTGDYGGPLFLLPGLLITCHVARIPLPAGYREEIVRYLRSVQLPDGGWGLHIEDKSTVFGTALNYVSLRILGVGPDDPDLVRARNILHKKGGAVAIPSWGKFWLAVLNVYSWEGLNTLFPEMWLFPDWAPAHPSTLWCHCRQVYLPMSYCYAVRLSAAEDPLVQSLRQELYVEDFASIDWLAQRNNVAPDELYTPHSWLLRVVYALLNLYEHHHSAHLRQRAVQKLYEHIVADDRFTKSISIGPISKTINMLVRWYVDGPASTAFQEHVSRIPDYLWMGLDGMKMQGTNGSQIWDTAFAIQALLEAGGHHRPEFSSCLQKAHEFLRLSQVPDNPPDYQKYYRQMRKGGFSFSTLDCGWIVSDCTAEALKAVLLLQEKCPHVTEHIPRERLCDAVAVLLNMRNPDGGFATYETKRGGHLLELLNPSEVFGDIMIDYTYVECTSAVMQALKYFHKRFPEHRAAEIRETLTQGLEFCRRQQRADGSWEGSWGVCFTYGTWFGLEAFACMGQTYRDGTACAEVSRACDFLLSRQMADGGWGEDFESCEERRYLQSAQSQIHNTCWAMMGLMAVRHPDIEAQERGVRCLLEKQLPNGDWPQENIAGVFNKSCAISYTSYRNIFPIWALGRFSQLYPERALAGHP

Compound in this assay: Cc1cc(ccc1-c1ccccc1)C(=O)N1CCCN(CC1)C(=O)CCl [compound 10]
The assay can be described thus: probe-labelled cysteine peptide fold change vs DMSO (competition) (log2 fold change); higher = less target engagement (more negative = stronger competition). Conditions: THP-1, incubation time: 4 h.

This is one part of the list.
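Also: competitive profiling in live THP-1 cells: cysteine peptides tagged with an iodoacetamide desthiobiotin (IA-DTB) probe, intensity after compound treatment relative to DMSO-treated cells.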

In the case of “LGALS9_O00182_316_GQSFSVWILCEAHCLK (UniProt O00182)”, the “probe-labelled cysteine peptide fold change” value reads like this: (10 µM) -0.332; (50 µM) 0.0163.

For the target “LIG4_P49917_855_VVSCLAEGVSHVIIGEDHSR (UniProt P49917)”, the “probe-labelled cysteine peptide fold change” value turned out to be 0.029 (10 µM) and 0.16 (50 µM).

Regarding “LRRC8D_Q7L1W4_733_CLDVSYNNISMIPIEIGLLQNLQHLHITGNK (UniProt Q7L1W4)”, the “probe-labelled cysteine peptide fold change” value by setting is: (10 µM) 0.194; (50 µM) 0.216.

“LGALS9_O00182_312_GQSFSVWILCEAHCLK (UniProt O00182)”: the “probe-labelled cysteine peptide fold change” value (10 µM) was -0.0314 and the “probe-labelled cysteine peptide fold change” value (50 µM) was 0.241.

For the target “LPIN3_Q9BQK8_443_SLRDPNPEHEPEPTLDTVDTIALSLCGGLADSR (UniProt Q9BQK8)”, the “probe-labelled cysteine peptide fold change” value reads like this: (10 µM) -0.112; (50 µM) 0.0613.

Consider “LIMS1_P48059_193_MGVPICGACR (UniProt P48059)”, for which the “probe-labelled cysteine peptide fold change” value runs as follows: (10 µM) -0.104; (50 µM) -0.269.

As for “LIMS1_P48059_252_GLAYCETHYNQLFGDVCFHCNR (UniProt P48059)”, the “probe-labelled cysteine peptide fold change” value is, setting by setting: (10 µM) 0.152; (50 µM) 0.299.

In the case of “LIMS1_P48059_10_ANALASATCER (UniProt P48059)”, the “probe-labelled cysteine peptide fold change” value (10 µM) was -0.159 and the “probe-labelled cysteine peptide fold change” value (50 µM) was found to be 0.0274.

On to “LIPE_Q05469_382_CCLAHLLHK (UniProt Q05469)”, for which the “probe-labelled cysteine peptide fold change” value runs as follows: (10 µM) -0.0718; (50 µM) -0.347.

Take “LPCAT2_Q7L5N7_326_NLMAEALGIPVTDHTYEDCR (UniProt Q7L5N7)”: the “probe-labelled cysteine peptide fold change” value was -0.16 (10 µM) and -0.0104 (50 µM).

“LRPPRC_P42704_1043_DILIACR (UniProt P42704)”: the “probe-labelled cysteine peptide fold change” value is 0.136 (10 µM) and -0.0185 (50 µM).

As to “LST1_O00453_90_ADYACIAENKPT (UniProt O00453)”, the “probe-labelled cysteine peptide fold change” value reads like this: (10 µM) -0.403; (50 µM) -0.306.

As for “LTN1_O94822_869_THLPDFLICK (UniProt O94822)”, the “probe-labelled cysteine peptide fold change” value by setting is: (10 µM) 0.0989; (50 µM) 0.0937.

Turning to “LGALS9_O00182_312+316_GQSFSVWILCEAHCLK (UniProt O00182)”, the “probe-labelled cysteine peptide fold change” value runs as follows: (10 µM) -0.00654; (50 µM) -0.0266.

With “LMAN2_Q12907_107_SKEGSIWNHQPCFLK (UniProt Q12907)”, the “probe-labelled cysteine peptide fold change” value reads like this: (10 µM) -0.133; (50 µM) -0.671.

Regarding “LPP_Q93052_499+502_AYHPHCFTCVMCHR (UniProt Q93052)”, the “probe-labelled cysteine peptide fold change” value by setting is: (10 µM) 0.182; (50 µM) 0.227.

“LTN1_O94822_91_AMQEFGTMCTER (UniProt O94822)”: the “probe-labelled cysteine peptide fold change” value is -0.0373 (10 µM) and 0.133 (50 µM).

On to “LTA4H_P09960_8_PEIVDTCSLASPASVCR (UniProt P09960)”, for which the “probe-labelled cysteine peptide fold change” value reads like this: (10 µM) -0.129; (50 µM) -0.324.

Regarding “LTN1_O94822_999_TLPSHLCTSALLSK (UniProt O94822)”, the “probe-labelled cysteine peptide fold change” value reads like this: (10 µM) 0.0936; (50 µM) 0.106.

For the target “LTA4H_P09960_136_EHPYLFSQCQAIHCR (UniProt P09960)”, the “probe-labelled cysteine peptide fold change” value is -0.0381 (10 µM) and -0.0993 (50 µM).

Take “LRCH1_Q9Y2L9_276_QLQVLLLENNPLQSPPAQICTK (UniProt Q9Y2L9)”: the “probe-labelled cysteine peptide fold change” value is, setting by setting: (10 µM) -0.13; (50 µM) -0.0651.

With “LRCH4_O75427_283_GSALGDLAPSRPPSFSPCPAEDLFPGHR (UniProt O75427)”, the “probe-labelled cysteine peptide fold change” value runs as follows: (10 µM) -1.16; (50 µM) -1.33.

Turning to “LRCH1_Q9Y2L9_292_YLSIQACQIK (UniProt Q9Y2L9)”, the “probe-labelled cysteine peptide fold change” value reads like this: (10 µM) 0.0321; (50 µM) -0.225.

As to “LIMS1_P48059_219_QWHVEHFVCAK (UniProt P48059)”, the “probe-labelled cysteine peptide fold change” value (10 µM) was found to be 0.0969 and the “probe-labelled cysteine peptide fold change” value (50 µM) is -0.163.

In the case of “LENG8_Q96PV6_723_LYCHAPCMSGYLVDK (UniProt Q96PV6)”, the “probe-labelled cysteine peptide fold change” value (10 µM) is -0.296 and the “probe-labelled cysteine peptide fold change” value (50 µM) came out at 0.126.

Consider “LPCAT1_Q8NF37_443_MYGAQEDGSVGEGDLSCILK (UniProt Q8NF37)”, for which the “probe-labelled cysteine peptide fold change” value is -0.0185 (10 µM) and 0.179 (50 µM).

Take “LRPPRC_P42704_722_AKYESDMVTGGYAALINLCCR (UniProt P42704)”: the “probe-labelled cysteine peptide fold change” value is, setting by setting: (10 µM) 0.0118; (50 µM) -0.476.

As to “LTA4H_P09960_147_AILPCQDTPSVK (UniProt P09960)”, the “probe-labelled cysteine peptide fold change” value was -0.0505 (10 µM) and -0.143 (50 µM).

On to “LSS_P48449_616_ACDFLLSR (UniProt P48449)”, for which the “probe-labelled cysteine peptide fold change” value was -0.236 (10 µM) and -0.0146 (50 µM).

For the target “LRCH1_Q9Y2L9_197_QLMELDVSCNEITALPQQIGQLK (UniProt Q9Y2L9)”, the “probe-labelled cysteine peptide fold change” value by setting is: (10 µM) -0.00665; (50 µM) -0.206.

Take “LSP1_P33241_36_AEASSDPGAEEREELLGPTAQWSVEDEEEAVHEQCQHER (UniProt P33241)”: the “probe-labelled cysteine peptide fold change” value runs as follows: (10 µM) 0.044; (50 µM) 0.363.

As to “LRRC42_Q9Y546_151+154_FTEAYGSLVLCSLCLR (UniProt Q9Y546)”, the “probe-labelled cysteine peptide fold change” value by setting is: (10 µM) -0.00875; (50 µM) 0.283.

For the target “LILRB4_Q8NHJ6_330_SSPAADVQGENFCAAVK (UniProt Q8NHJ6)”, the “probe-labelled cysteine peptide fold change” value runs as follows: (10 µM) -0.385; (50 µM) -0.214.

Take “LSS_P48449_484_LCDAVAVLLNMR (UniProt P48449)”: the “probe-labelled cysteine peptide fold change” value by setting is: (10 µM) 0.0147; (50 µM) 0.0559.

In the case of “LRCH4_O75427_105_CLNPALGNLTALTYLNLSR (UniProt O75427)”, the “probe-labelled cysteine peptide fold change” value by setting is: (10 µM) -0.0243; (50 µM) -0.184.

Consider “LNPEP_Q9UIQ6_35_EPCLHPLEPDEVEYEPR (UniProt Q9UIQ6)”, for which the “probe-labelled cysteine peptide fold change” value reads like this: (10 µM) -0.24; (50 µM) -0.268.

As for “LRCH3_Q96II8_277_YLNIQACK (UniProt Q96II8)”, the “probe-labelled cysteine peptide fold change” value was -0.16 (10 µM) and 0.0732 (50 µM).

For the target “LMNB1_P20700_110_CKAEHDQLLLNYAK (UniProt P20700)”, the “probe-labelled cysteine peptide fold change” value was 0.0414 (10 µM) and -0.47 (50 µM).
